Molecular target: 72 kDa type IV collagenase (Homo sapiens, UniProt P08253)
Assay: Inhibition of Matrix metalloprotease-2 (MMP-2)

Sequences of proteins named here, by UniProt entry; tags and fusion partners are left off. A change or cut given only in a name is not applied to a line headed by its entry.
UniProt P08253: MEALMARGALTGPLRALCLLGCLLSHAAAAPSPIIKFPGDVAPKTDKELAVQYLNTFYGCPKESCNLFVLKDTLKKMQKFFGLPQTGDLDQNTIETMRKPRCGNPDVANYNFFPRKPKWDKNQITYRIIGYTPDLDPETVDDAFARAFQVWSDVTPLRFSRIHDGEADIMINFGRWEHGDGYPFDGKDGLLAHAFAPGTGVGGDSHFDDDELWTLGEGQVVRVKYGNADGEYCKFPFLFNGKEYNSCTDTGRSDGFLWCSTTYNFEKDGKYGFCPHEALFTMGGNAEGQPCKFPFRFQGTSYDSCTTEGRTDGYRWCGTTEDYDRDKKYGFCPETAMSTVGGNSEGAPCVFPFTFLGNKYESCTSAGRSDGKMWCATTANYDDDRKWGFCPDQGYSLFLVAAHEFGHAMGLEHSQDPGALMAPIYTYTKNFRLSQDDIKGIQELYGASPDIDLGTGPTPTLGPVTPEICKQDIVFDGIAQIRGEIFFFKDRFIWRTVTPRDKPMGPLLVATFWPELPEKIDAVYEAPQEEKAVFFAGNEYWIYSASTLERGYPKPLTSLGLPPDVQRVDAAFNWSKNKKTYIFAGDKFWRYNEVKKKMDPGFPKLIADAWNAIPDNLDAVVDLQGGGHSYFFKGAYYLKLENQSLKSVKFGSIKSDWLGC

SMILES: CNC(=O)[C@H](Cc1ccc(OC)cc1)NC(=O)[C@@H](CC(=O)NO)CC(C)C
- Ki: < 10 nM

— ChEMBL document CHEMBL1130526, “Amide surrogates of matrix metalloproteinase inhibitors: Urea and sulfonamide mimics” (Bioorg Med Chem Lett, 1997)
